Paper PMC9243095
For at least one entry, the source does not settle the construct or the ends of the probe. A negative result means that nothing was seen under these conditions.

By UniProt entry, the sequences of proteins in these tests, tags left out. Where a name states a change or a piece, a line headed by the entry shows the natural chain unless it says otherwise.
UniProt Q9T0D3: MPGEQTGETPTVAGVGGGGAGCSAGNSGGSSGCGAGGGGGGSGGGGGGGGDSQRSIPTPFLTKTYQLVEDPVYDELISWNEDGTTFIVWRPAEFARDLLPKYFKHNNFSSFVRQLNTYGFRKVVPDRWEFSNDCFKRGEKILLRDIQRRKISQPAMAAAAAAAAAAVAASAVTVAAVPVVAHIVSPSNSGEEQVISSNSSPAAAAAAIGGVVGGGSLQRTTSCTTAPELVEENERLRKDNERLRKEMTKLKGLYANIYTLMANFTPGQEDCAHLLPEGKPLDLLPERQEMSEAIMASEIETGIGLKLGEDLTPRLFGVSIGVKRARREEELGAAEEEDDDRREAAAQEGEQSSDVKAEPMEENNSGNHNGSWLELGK

Target: MBP-HsfB2bDBD (Arabidopsis thaliana) (UniProt Q9T0D3)
Test: EMSA
Conditions: 5 uM protein, 100 nM probe; 10 mM Tris-HCl pH 7.5, 50 mM NaCl, 1 mM EDTA, 5% glycerol, 5 mM DTT, room temperature; 6% polyacrylamide gel, 0.5X TBE; recombinant protein; protein details: N-terminal MBP (pMAL-c2); label: 5'-Cy5 on strand 1

| Sequence | binding result |
| --- | --- |
| TTTCCTCCTTAAAAACATTTAAAAAAAACAAAAGGAGAGA (double strand) [mHSE probe] | no binding |
| TTTCCTCCTTAGAAACATCTAGAAAAAACAAAAGGAGAGA (double strand) [HSE (HSEVIN3) probe] | binds |
